Assay results taken from patent publication US20250263370A1 (Tay Therapeutics Limited, priority 2022, published 2025).
“And” between values parts separate entries of the source, which are not always exact repeats. Identical values can stand only once. Further values from the same series stand in other lists.

Tested on: renal fibrosis
Assay: Unilateral Urethral Obstruction (UUO) renal fibrosis model in rats: body weight, clinical observations, histopathology scores, serum urea, hydroxyproline
Assay type: in vivo, rat
Conditions: 30 mg/kg
From the text: Unilateral Urethral Obstruction (UUO) is a complex model of renal fibrosis (RF) disease. RF is a common outcome in progressive chronic kidney diseases, characterized by excessive formation of internal scar tissue. Surgical obstruction of urine flow can be used to trigger this disease in rodents. The UUO model allows for evaluation of potential drugs as treatment for RF.
Experimental groups for the study are outlined in Table 10. […] Briefly, animals were anesthetized using a Zoletil/Xylazine mixture (20:1, v:v) for a final dose of 25 mg/kg. The operation area was disinfected with 75% alcohol before shaving. Rats in UUO group were exposed left ureter through a small incision on the left side of the abdomen and ligated with 3-0 silk at two locations about 0.5 cm below the renal hilum. The ureters of sham rats in Group 1 were manipulated but not ligated.
Starting on Day 0, animals in group 2 were administered daily doses of the vehicle for 14 days.
Clinical signs for all animals were monitored and recorded daily. Blind clinical nephropathy scores were conducted for all animals in the study. Glomerulosclerosis, interstitial nephritis, collagen fiber deposition, nephropathy were each assessed for all experimental rats, and a total clinical score was determined for each rat. The scoring system represented the degree or percentage of lesions in the whole kidney. Clinical score assessments were performed on Day 14.
Serum for blood biochemistry analysis was collected into centrifuge tubes without coagulant four hours after final dosing. Blood plasma samples from group 3 was collected into tubes with K2EDTA four hours after final dosing. At the conclusion of the study (end of the 14-day period), animals were euthanized. Kidney tissue was collected four hours after final dosing. Ligated side kidney was divided into three copies ⅓ fix into 10% formalin for H&E analysis, ⅓ into RNA for PCR analysis of tissue biomarkers Col1a1, TGF-b1, MCP-1, IL-1b, IL-6, IL-17, TNF-a, and Timp1, and ⅓ for hydroxyproline assay analyzed by ELISA. RNA was extracted from tissue using the RNeasy mini kit (Qiagen). RNA concentration was measured using a NanoDrop One Spectrophotometer (ThermoFisher) and converted to cDNA using a High-Capacity RNA-to-cDNA kit (Invitrogen). RT-PCR was performed to measure levels of mRNA of different targets using TaqMan® Gene Expression Master Mix and TaqMan® probe/primer sets on a QuantStudio 6, Real-Time PCR System (ThermoFisher). Fold change in target gene expression was determined using the ΔΔCt method.

`CNC(=O)c1[nH]c(C(=O)NC2CCC2)cc1O[C@@H](C)c1ccccc1` (stereo in doubt) [Example 101, N^5-cyclobutyl-N^2-methyl-3-(1-phenylethoxy)-1H-pyrrole-2,5-dicarboxamide] was tested, and the Body weight (Day 8, individual animals) was 292 g and 290 g and 309 g and 326 g, the Body weight (Day 9, individual animals) was 296 g and 291 g and 309 g and 329 g and the Body weight (Day 10, individual animals) was 301 g and 295 g and 320 g. The Body weight (Day 11, individual animals) was 305 g and 300 g and 330 g and 345 g, the Body weight (Day 12, individual animals) was 310 g and 300 g and 331 g and 340 g and the Body weight (Day 13, individual animals) was 313 g and 308 g and 334 g and 347 g. The Body weight (Day 14, individual animals) was 312 g (2×) and 339 g and 348 g.
